Laboratory results published in patent US12336988B2, “Therapeutic targeting of KMT2D mutant lung squamous cell carcinoma through RTK-RAS signaling inhibition” (New York University, priority 2021, dated 2025).
At least one compound was matched to its structure with a doubt left.

What was measured:
[1] = test system: Kmt2d KO LUSC tumors; assay: Pharmacodynamics in Kmt2d KO LUSC tumor nodules (western blot, RNA-seq, IHC); assay type: in vivo, mouse
Description: Cells were lysed in RIPA buffer (Thermo Scientific™, 89900) containing protease/phosphatase inhibitor cocktail (Thermo Scientific™, 78440). Protein concentration was measured using the Pierce™ BCA assay (Thermo Scientific™, 23225). Equivalent amounts of each sample were loaded on 4% to 12% Bis-Tris gels (Bio-Rad), transferred to nitrocellulose membranes, and immunoblotted with antibodies directed against KMT2D (C15310100, Diagenode), EGFR (CST, 2232S), pEGFR (CST, 3777S), ERBB2 (CST, 2165S), pERBB2 (CST, 2243S) and β-actin (A5441, Sigma). IRDye 800-labeled goat anti-rabbit IgG (LI-COR, 926-32211) and IRDye 680-labeled goat anti-mouse IgG (LI-COR, 926-68070) secondary antibodies, and membranes were detected with an Odyssey detection system (LI-COR Biosciences).
(§1) All mouse work was reviewed and approved by the Institutional Animal Care and Use Committee at NYU School of Medicine and the Center for Excellence in Molecular Cell Science, Chinese Academy of Sciences. To study whether mutated organoids can form LUSC in vivo, 6 to 8-week-old C57BL/6J mice were obtained from Jackson Laboratory and subcutaneously inoculated with organoids into both flanks. Tumor length and width were measured using calipers. Tumor volumes were calculated using the formula (Length×Width^2)/2. To establish the orthotopic LUSC model, Trp53^−/−; Kmt2d^−/− or Trp53^−/− Pten^−/− cells were injected into B6(Cg)-Tyrc-2J/J (B6-albino) mice via tail vein injection at 2×10^6 cells per mice. Mill was used to monitor tumor formation and progression of LUSC. After confirming the tumor burden by MRI, mice were randomized and then treated with vehicle, chemotherapy (Carboplatin 40 mpk I.P. QW+paclitaxel 10 mpk I.P. QW), SHP099 (75 mpk, 5 days per week), afatinib (10 mpk, 5 days per week) or the combination of SHP099 and afatinib. Subsequent Mill was performed every 2 weeks after treatment initiation and survival of animals were monitored. To compare the in vivo treatment efficacy of Trp53^−/−; Pten^−/− and Trp53^−/−; Pten^−/−; Kmt2d^−/− LUSC, Trp53^−/−; Pten^−/− cells (4×10^6) and Trp53^−/−; Pten^−/−; Kmt2d^−/− cells (4×10^6) were injected with 1:1 mixture of cell suspension and Matrigel (Corning 354234) subcutaneously into both flanks of C57BL/6J mice. When the tumor volume reached approximately 100-200 mm^3, the animals were randomized into treatment groups and dosing was initiated on day 0 with vehicle or combined SHP099 (75 mpk, 5 days per week) and afatinib (10 mpk, 5 days per week). Tumor size and body weight were measured twice weekly, and the tumor volumes were calculated using the (Length×Width^2)/2).
Lungs were perfused with 10% formalin, stored in fixative for 48 h, and embedded in paraffin. […] IHC images were analyzed and quantified by FIJI (NIH). […]

[2] = test system: human LUSC cell lines; settings: DepMap dataset; cited from earlier work
[3] = test system: Kmt2d WT LUSC (Trp53−/−; Pten−/−); assay: Orthotopic Kmt2d WT LUSC model; assay type: in vivo, mouse; settings: tumor volume change, 2 weeks
Description: All mouse work was reviewed and approved by the Institutional Animal Care and Use Committee at NYU School of Medicine and the Center for Excellence in Molecular Cell Science, Chinese Academy of Sciences. To study whether mutated organoids can form LUSC in vivo, 6 to 8-week-old C57BL/6J mice were obtained from Jackson Laboratory and subcutaneously inoculated with organoids into both flanks. Tumor length and width were measured using calipers. Tumor volumes were calculated using the formula (Length×Width^2)/2. To establish the orthotopic LUSC model, Trp53^−/−; Kmt2d^−/− or Trp53^−/− Pten^−/− cells were injected into B6(Cg)-Tyrc-2J/J (B6-albino) mice via tail vein injection at 2×10^6 cells per mice. Mill was used to monitor tumor formation and progression of LUSC. […] Subsequent Mill was performed every 2 weeks after treatment initiation and survival of animals were monitored. […] Tumor size and body weight were measured twice weekly, and the tumor volumes were calculated using the (Length×Width^2)/2).
Animals were anesthetized with isoflurane to perform MRI of the lung field using BioSpec USR70/30 horizontal bore system (Bruker) to scan 16 consecutive sections. Tumor volumes within the whole lung were quantified using 3-D slicer software to reconstruct Mill volumetric measurements. […]

[4] = test system: Kmt2d KO LUSC; assay: Orthotopic Kmt2d KO LUSC model (MRI tumor volume, survival, weight); assay type: in vivo, mouse
Description: as §1, with “After confirming the tumor burden by MRI, mice were randomized and then treated with vehicle, chemotherapy (Carboplatin 40 mpk I.P. QW+paclitaxel 10 mpk I.P. QW), SHP099 (75 mpk, 5 days per week), afatinib (10 mpk, 5 days per week) or the combination of SHP099 and afatinib.” left out
Animals were anesthetized with isoflurane to perform MRI of the lung field using BioSpec USR70/30 horizontal bore system (Bruker) to scan 16 consecutive sections. Tumor volumes within the whole lung were quantified using 3-D slicer software to reconstruct Mill volumetric measurements. Acquisition of the Mill signal was adapted according to cardiac and respiratory cycles to minimize motion effects during imaging.

[5] = test system: pERK in Kmt2d KO LUSC cells; assay: Western blot of pERK in treated cells; assay type: cell-based, mouse; settings: in vitro, 6 h
[6] = test system: Kmt2d WT PDXs (PDX-2, PDX-4); assay: KMT2D WT LUSC patient-derived xenografts; assay type: in vivo, human
Description: (§2) For human patient-derived xenograft (PDX) xenograft study. PDX-1 (KMT2D mutant), PDX-2 (KMT2D WT), PDX-3 (KMT2D mutant), PDX-4 (KMT2D WT) derived from primary LUSC tumor fragments were implanted subcutaneously in a single flank of 6-8-week-old female NOD-SCID-II2rg^null (NSG) mice (Jackson Laboratory). For human cell line xenograft study, LK2 cells (1×10^6), HARA-sgControl (2×10^6) and HARA-sgKMT2D (2×10^6) were injected with 1:1 mixture of cell suspension and Matrigel (Corning 354234) subcutaneously into both flanks of nude mice (Jackson Laboratory). For PDXs and human cell line xenograft study, when the tumor volume reached approximately 100-200 mm^3, the animals were randomized into treatment groups and dosing was initiated on day 0 with vehicle, SHP099 (75 mpk, 5 days per week), afatinib (10 mpk, 5 days per week) or the combination of SHP099 and afatinib. Tumor size and body weight were measured twice weekly, and the tumor volumes were calculated using the (Length×Width^2)/2).

[7] = test system: KMT2D mutant PDXs (PDX-1, PDX-3); assay: KMT2D mutant LUSC patient-derived xenografts; assay type: in vivo, human; settings: both KMT2D mutant PDXs
Description: as §2

[8] = test system: LK2, a human LUSC cell line with the KMT2D nonsense mutation; assay: LK2 xenograft in nude mice; assay type: in vivo; settings: subcutaneous
Description: as §2

[9] = test system: Kmt2d KO cells; assay: Seven-day colony formation assay; assay type: cell-based, mouse; settings: seven days
Description: Cells were trypsinized to produce a single-cell suspension. 2,000 cells were counted and plated in each well of a 6-well plate. Medium was changed every 2 days. After 7 days, cells were fixed with 70% ethanol for 10 minutes, and the cells were stained with 0.5% crystal violet (dissolved in 20% methanol) for 5 minutes and washed. Photos were taken and quantified using ImageJ.

Compound: CN(C)C/C=C/C(=O)Nc1cc2c(Nc3ccc(F)c(Cl)c3)ncnc2cc1O[C@H]1CCOC1 [afatinib]
- levels of Kras-dependent genes in tumor nodules (RNA-seq) ([1]; three days of treatment): pronouncedly downregulated
- levels of pERK in tumor nodules ([1]; three days of treatment, versus vehicle, SHP099 75 mpk QD, afatinib 10 mpk QD): substantially reduced
- Ki-67 expression (IHC) ([1]; treated Kmt2d KO tumors): significantly decreased
- cleaved caspase-3 levels (IHC) ([1]; treated Kmt2d KO tumors): increased
- association of lower KMT2D levels with drug sensitivity [2]: higher sensitivity
- sensitivity of tumors to treatment [3]: less sensitive
- tumor growth / tumor volume (MRI) ([4]; 2 weeks after treatment initiation): significantly shrank
- overall survival (OS) compared with vehicle ([4]; Kmt2d KO LUSC tumor-bearing mice): moderately prolonged
- resistance on long term MRI follow-up ([4]; after 4 weeks of treatment): began to develop resistance
- disease status of most mice ([4]; by 6 weeks, most mice in the monotherapy groups): progressive disease
- pERK levels [5]: robustly reduced
- sensitivity of tumors to treatment [6]: much less sensitive
- tumor growth [7]: markedly attenuated
- LK2 tumor growth [8]: moderately delayed
- colony formation [9]: dramatically inhibited
